In PMC11379074 one finds binding data, which are given here for one molecule.

The chains behind the UniProt entries cited, without tags or fusion partners. Where a name states a change or a piece, a line headed by the entry shows the natural chain unless it says otherwise.
UniProt Q14554: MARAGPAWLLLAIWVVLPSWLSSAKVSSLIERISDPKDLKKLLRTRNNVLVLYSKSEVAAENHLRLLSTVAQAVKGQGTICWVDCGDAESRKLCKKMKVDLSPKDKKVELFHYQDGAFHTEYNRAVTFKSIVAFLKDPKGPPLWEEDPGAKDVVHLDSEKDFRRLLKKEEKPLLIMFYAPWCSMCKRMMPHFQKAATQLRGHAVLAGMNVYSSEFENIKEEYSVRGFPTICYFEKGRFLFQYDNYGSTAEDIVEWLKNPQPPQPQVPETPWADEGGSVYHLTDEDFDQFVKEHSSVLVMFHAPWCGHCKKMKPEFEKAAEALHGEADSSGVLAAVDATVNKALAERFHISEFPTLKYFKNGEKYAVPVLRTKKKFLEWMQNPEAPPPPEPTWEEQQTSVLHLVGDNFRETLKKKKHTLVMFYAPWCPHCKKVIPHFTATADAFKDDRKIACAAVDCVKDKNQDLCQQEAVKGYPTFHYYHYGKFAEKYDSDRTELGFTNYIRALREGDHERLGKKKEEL

These are yes or no findings as the source states them, for the method shown. Binding seen in cells or lysates may run through a third protein. Here binding means that the protein was enriched with, or labelled near, the bait; the list need not be complete.

The target in the assay is Flag-mut-PDIA5 (human) (UniProt Q14554). The assay is described as follows: affinity purification with mass spectrometry; anti-Flag immunoprecipitation from lysate of U251MG cells stably expressing Flag-mut-PDIA5; LC-MS of the precipitate.

B1: cell division cycle and apoptosis regulator protein 1 (CCAR1) (protein, UniProt Q8IX12 1-1150)
chain: MAQFGGQKNPPWATQFTATAVSQPAALGVQQPSLLGASPTIYTQQTALAAAGLTTQTPANYQLTQTAALQQQAAAAAAALQQQYSQPQQALYSVQQQLQQPQQTLLTQPAVALPTSLSLSTPQPTAQITVSYPTPRSSQQQTQPQKQRVFTGVVTKLHDTFGFVDEDVFFQLSAVKGKTPQVGDRVLVEATYNPNMPFKWNAQRIQTLPNQNQSQTQPLLKTPPAVLQPIAPQTTFGVQTQPQPQSLLQAQISAASITPLLQTQPQPLLQQPQQKAGLLQPPVRIVSQPQPARRLDPPSRFSGRNDRGDQVPNRKDDRSRERERERRRSRERSPQRKRSRERSPRRERERSPRRVRRVVPRYTVQFSKFSLDCPSCDMMELRRRYQNLYIPSDFFDAQFTWVDAFPLSRPFQLGNYCNFYVMHREVESLEKNMAILDPPDADHLYSAKVMLMASPSMEDLYHKSCALAEDPQELRDGFQHPARLVKFLVGMKGKDEAMAIGGHWSPSLDGPDPEKDPSVLIKTAIRCCKALTGIDLSVCTQWYRFAEIRYHRPEETHKGRTVPAHVETVVLFFPDVWHCLPTRSEWETLSRGYKQQLVEKLQGERKEADGEQDEEEKDDGEAKEISTPTHWSKLDPKTMKVNDLRKELESRALSSKGLKSQLIARLTKQLKVEEQKEEQKELEKSEKEEDEDDDRKSEDDKEEEERKRQEEIERQRRERRYILPDEPAIIVHPNWAAKSGKFDCSIMSLSVLLDYRLEDNKEHSFEVSLFAELFNEMLQRDFGVRIYKSLLSLPEKEDKKEKDKKSKKDERKDKKEERDDETDEPKPKRRKSGDDKDKKEDRDERKKEDKRKDDSKDDDETEEDNNQDEYDPMEAEEAEDEEDDRDEEEMTKRDDKRDINRYCKERPSKDKEKEKTQMITINRDLLMAFVYFDQSHCGYLLEKDLEEILYTLGLHLSRAQVKKLLNKVVLRESCFYRKLTDTSKDEENHEESESLQEDMLGNRLLLPTPTVKQESKDVEENVGLIVYNGAMVDVGSLLQKLEKSEKVRAEVEQKLQLLEEKTDEDEKTILNLENSNKSLSGELREVKKDLSQLQENLKISENMNLQFENQMNKTIRNLSTVMDEIHTVLKKDNVKNEDKDQKSKENGASV
For the molecule B1, the binding result was “binds”.
